24 compounds from PubChem BioAssay AID328 (DTP/NCI, 2004) can be followed below.

The list does not hold the whole screen: it is rich in T/C values a quarter to a half above the control, in often repeated tests (any T/C) and in doses without a T/C. Further doses and runs are listed elsewhere. T/C gives the treated animals as a percentage of the vehicle group. Some doses have a count of surviving animals in place of a T/C: the source files T/C as zero there, which appears to mark a toxic dose or a test without result, not a measured value. Some doses without a T/C left all or most animals alive at the check, yet need not have been tolerated: the source hardly ever lists a survival T/C far under the control, and the zero likely stands for such cases as well. Survivors were counted at the toxicity check, usually on the fifth day, unless a day is given; later deaths do not show. Schedule codes are those of the source, read here as Q, the interval in days (D) or hours (H), X, the number of doses. Some doses were run more than once; the results are listed from low to high. For survival time, the PubChem record calls one and a half times the control and up active, and a quarter to a half above the control has no call in these data; cut-offs in other NCI protocols can differ. Some T/C values are followed by the survivors on the day toxicity was checked, most often the fifth; without a count, all were alive then.

The test relates to BDF1 mice, P388 leukemia ip, median survival T/C. The test can be described thus: NCI In Vivo Anticancer Drug Screen. Data for tumor model P388 Leukemia (intraperitoneal) in B6D2F1 (BDF1) mice. To be noted: T/C endpoint: median survival time, higher T/C = longer survival. The essentials: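 In tumour-bearing mice, survival after compound treatment is set against the vehicle group and given as a quotient.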

[1] abbreviates: dose: 50.0 mg/kg/injection, schedule: Q01DX009 (ip), vehicle: saline with Tween-80.
[2] abbreviates: dose: 50.0 mg/kg/injection, schedule: Q01DX009 (ip), vehicle: Klucel (hydroxypropylcellulose) (HPC).
[3] abbreviates: dose: 100.0 mg/kg/injection, schedule: Q01DX009 (ip), vehicle: Klucel (hydroxypropylcellulose) (HPC).
The mark [4] stands for this setting: dose: 200.0 mg/kg/injection, schedule: Q04DX003 (ip), vehicle: saline.
Where [5] appears, read: dose: 400.0 mg/kg/injection, schedule: Q04DX003 (ip), vehicle: saline.
Setting [6] is: dose: 100.0 mg/kg/injection, schedule: Q01DX009 (ip), vehicle: saline.
Setting [7] is: dose: 200.0 mg/kg/injection, schedule: Q01DX009 (ip), vehicle: saline.
The mark [8] stands for this setting: dose: 200.0 mg/kg/injection, schedule: Q04DX003 (ip), vehicle: saline with Tween-80.

With `COc1ccc(-c2c(C)c(C)nc(Cl)c2C#N)c(OCc2ccccc2)c1OC`, the survivor count is recorded as 6 of 6 (dose: 0.05 mg/kg/injection, schedule: Q01DX009 (ip), vehicle: Klucel (hydroxypropylcellulose) (HPC)); 6 of 6 (dose: 0.2 mg/kg/injection, schedule: Q01DX009 (ip), vehicle: Klucel (hydroxypropylcellulose) (HPC)); 6 of 6 (dose: 0.4 mg/kg/injection, schedule: Q01DX009 (ip), vehicle: Klucel (hydroxypropylcellulose) (HPC)).
Consider `O=C1NNC(c2ccccc2)C1(Cl)Cl` (stereo not given), for which the survivor count under setting [1] was 4 of 6.
For `NC1=NC(=S)C2N=C(N=Nc3ccc(C(=O)NC(CCC(=O)O)C(=O)O)cc3)N=C2N1` (stereo not given), the survivor count is recorded as 6 of 6 (dose: 12.5 mg/kg/injection, schedule: Q01DX009 (ip), vehicle: Klucel (hydroxypropylcellulose) (HPC)); 6 of 6 (dose: 25.0 mg/kg/injection, schedule: Q01DX009 (ip), vehicle: Klucel (hydroxypropylcellulose) (HPC)); 6 of 6 under setting [2]; 6 of 6 (dose: 100.0 mg/kg/injection, schedule: Q04DX003 (ip), vehicle: Klucel (hydroxypropylcellulose) (HPC)).
`CSc1cccc(NC(=O)Oc2cc(C)c(Cl)c(C)c2Cl)c1`: the survivor count (dose: 25.0 mg/kg/injection, schedule: Q01DX009 (ip), vehicle: DMSO) was 4 of 6.
Take `Cc1cc[n+]2cc3c(ccc4ccccc43)c(C)c2c1`: the T/C (dose: 6.25 mg/kg/injection, schedule: Q01DX010 (ip), vehicle: carboxymethylcellulose (CMC)) is 130 % of control. Further, under “dose: 50.0 mg/kg/injection, schedule: Q01DX010 (ip), vehicle: carboxymethylcellulose (CMC)”, the survivor count is 3 of 6.
Take `CC(C)(C)CC(=O)OCCC[N+](C)(C)[O-]`: the survivor count is reported as 1 of 4 (dose: 400.0 mg/kg/injection, schedule: Q01DX005 (ip), vehicle: water) and 1 of 4 (dose: 500.0 mg/kg/injection, schedule: Q01DX005 (ip), vehicle: water).
For `CCN(CC)c1cc(Cl)c(C=O)cc1Br`, the survivor count under setting [3] is recorded as 6 of 6.
With `COc1cc(C=C2C(=O)C=CC2=O)ccc1O`, the survivor count (dose: 25.0 mg/kg/injection, schedule: Q01DX009 (ip), vehicle: saline with Tween-80) is on record as 0 of 6.
On to `COc1cc2c(C)c[n+]3cc4cc5c(OC)c(OC)ccc5cc4cc3c2cc1OC` (tested in a mixture with another compound), for which the survivor count was 3 of 6 (dose: 50.0 mg/kg/injection, schedule: Q04DX003 (ip), vehicle: other); 0 of 6 (dose: 100.0 mg/kg/injection, schedule: Q04DX003 (ip), vehicle: other); 0 of 6 (dose: 200.0 mg/kg/injection, schedule: Q04DX003 (ip), vehicle: other); 0 of 6 (dose: 400.0 mg/kg/injection, schedule: Q04DX003 (ip), vehicle: other).
As for `CC1NCCNCCNCCNC(C)c2cccc1n2` (stereo not given), the survivor count (dose: 50.0 mg/kg/injection, schedule: Q01DX009 (ip), vehicle: saline) is recorded as 1 of 6.
`CCCCCCCCOP(=O)(N1CC1C)N1CC1C` (stereo not given): the survivor count by setting is: under setting [4], 4 of 6; under setting [5], 0 of 6.
On to `CC12CCC(Cl)CC1=CCC1C2CCC2(C)C1CCCN2CCCl` (stereo not given), for which the survivor count (dose: 50.0 mg/kg/injection, schedule: Q01DX001 (ip), vehicle: saline with Tween-80) is 1 of 6; the survivor count (dose: 50.0 mg/kg/injection, schedule: Q01DX001 (ip), vehicle: saline) is recorded as 2 of 6; the survivor count (dose: 100.0 mg/kg/injection, schedule: Q01DX001 (ip), vehicle: saline) is 0 of 6.
As to `Cc1cc(N(CCCl)CCCl)ccc1C=NC1CCCC1`, the T/C reads like this: (dose: 88.0 mg/kg/injection, schedule: Q01DX009 (ip), vehicle: Klucel (hydroxypropylcellulose) (HPC)) 130 % of control; (dose: 400.0 mg/kg/injection, schedule: Q04DX003 (ip), vehicle: Klucel (hydroxypropylcellulose) (HPC)) 145 % of control. Moreover, the survivor count was 6 of 6 (dose: 300.0 mg/kg/injection, schedule: Q01DX009 (ip), vehicle: Klucel (hydroxypropylcellulose) (HPC)) and 1 of 6 (dose: 400.0 mg/kg/injection, schedule: Q01DX009 (ip), vehicle: Klucel (hydroxypropylcellulose) (HPC)).
On to `O=C(O)C1CCSS1` (stereo not given), for which the survivor count was 6 of 6 (dose: 3.12 mg/kg/injection, schedule: Q01DX009 (ip), vehicle: saline); 6 of 6 (dose: 6.25 mg/kg/injection, schedule: Q01DX009 (ip), vehicle: saline); 5 of 6 and 6 of 6 (dose: 25.0 mg/kg/injection, schedule: Q01DX009 (ip), vehicle: saline); 3 of 6 under setting [6]; 0 of 6 under setting [7]; 3 of 6 under setting [4]. Further, under setting [5], the survivor count is on record as 0 of 6.
With `O=C(CC(O)(C(F)(F)F)C(F)(F)F)c1ccco1`, under setting [1], the T/C was 133 % of control. Also, under setting [8], the survivor count was 3 of 6.
For `N=C(N)N1CCNc2ccccc2C1`, the survivor count is, setting by setting: under setting [8], 4 of 6; (dose: 400.0 mg/kg/injection, schedule: Q04DX003 (ip), vehicle: saline with Tween-80) 1 of 6.
Consider `N/C(=N\O)c1cn(C2OC(CO)C(O)C2O)c2ncnc(N)c12` (stereo not given), for which the T/C (dose: 0.3 mg/kg/injection, schedule: Q01DX009 (ip), vehicle: Klucel (hydroxypropylcellulose) (HPC)) is 136 % of control.
With `C=C=[CH][Sn]([c]1ccccc1)([c]1ccccc1)[c]1ccccc1`, the survivor count is listed as 6 of 6 under setting [2] and 4 of 6 under setting [3].
On to `CC[C@@H](O)C[C@H]1CCC[C@@]2(C[C@@H]3OC(=O)/C=C/[C@@](C)(O)[C@@H](O)[C@H](C)[C@@H](O)[C@H](OC4CCC(N(C)C)C(C)O4)[C@@H](O)[C@](C)(O)CCCCC/C=C/[C@@H]4CC(C)(C)O[C@@]4(O)C[C@H](O2)[C@H]3C)O1` (stereo not given in full), for which the survivor count is reported as 5 of 6 (dose: 0.06 mg/kg/injection, schedule: Q01DX009 (ip), vehicle: saline); 1 of 6 (dose: 0.12 mg/kg/injection, schedule: Q01DX009 (ip), vehicle: saline); 0 of 6 (dose: 0.25 mg/kg/injection, schedule: Q01DX009 (ip), vehicle: saline); 0 of 6 (dose: 14.0 mg/kg/injection, schedule: Q04DX003 (ip), vehicle: saline); 0 of 6 (dose: 22.0 mg/kg/injection, schedule: Q04DX003 (ip), vehicle: saline); 0 of 6 (dose: 35.0 mg/kg/injection, schedule: Q04DX003 (ip), vehicle: saline).
Regarding `C[n+]1c(/C=C\C=C\N2CCCCC2)sc2ccccc21`, the survivor count is, setting by setting: (dose: 1.25 mg/kg/injection, schedule: Q01DX009 (ip), vehicle: Klucel (hydroxypropylcellulose) (HPC)) 0 of 6; (dose: 2.5 mg/kg/injection, schedule: Q01DX009 (ip), vehicle: Klucel (hydroxypropylcellulose) (HPC)) 0 of 6; (dose: 5.0 mg/kg/injection, schedule: Q01DX009 (ip), vehicle: Klucel (hydroxypropylcellulose) (HPC)) 0 of 6.
As for `CCOC(=O)Nc1cc(NC(C)CCCN(CC)CC)c2ncc(-c3cc(OC)c(OC)c(OC)c3)nc2n1` (stereo not given) (tested in a mixture with another compound), under setting [6], the T/C was 130 % of control [4 of 6 alive]. Also, the survivor count under setting [4] is recorded as 3 of 6.
As to `O=C1NC(c2cccs2)(c2cccs2)C(=O)N1Cl`, the T/C is 134 % of control (dose: 100.0 mg/kg/injection, schedule: Q01DX009 (ip), vehicle: water) and 125 % of control [5 of 6 alive] (dose: 200.0 mg/kg/injection, schedule: Q01DX009 (ip), vehicle: water). Besides, the survivor count (dose: 400.0 mg/kg/injection, schedule: Q01DX009 (ip), vehicle: water) was 2 of 6.
With `Nc1ccccc1-n1nc2ccc3ccccc3c2n1`, the T/C (dose: 200.0 mg/kg/injection, schedule: Q01DX009 (ip), vehicle: saline with Tween-80) is 130 % of control.
Turning to `CC=C=CCN(C)Cc1ccccc1`, the survivor count reads like this: under setting [6], 0 of 6; under setting [7], 0 of 6.
